In the supplement of paper PMC8728848:
Some of the results follow.

What was measured:
Assay in all cases: glycan array binding signal (z-score within array); higher = stronger binding
Details in all cases: glycan notation: IUPAC condensed, linker removed
[1] = biological target: Man(a1-2)Man(a1-3)[Man(a1-2)Man(a1-6)]Man
In short: (§1)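 Glycan array data were curated from 3228 arrays in the Consortium for Functional Glycomics database and kept only where the protein sequence was available. Glycan names were converted to IUPAC-condensed notation, and columns mapping to the same glycan were averaged. The binding signal is a within-array Z-score, averaged across arrays of the same protein sequence at different concentrations or buffers and across linkers. Negative Z-scores can be read as non-binding.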

[2] = biological target: Man(a1-2)Man(a1-3)[Man(a1-2)Man(a1-6)]Man(a1-6)[Man(a1-2)Man(a1-2)Man(a1-3)]Man
In short: as §1

[3] = biological target: Man(a1-2)Man(a1-3)[Man(a1-2)Man(a1-6)]Man(a1-6)[Man(a1-2)Man(a1-2)Man(a1-3)]Man(b1-4)GlcNAc(b1-4)GlcNAc
In short: as §1

[4] = biological target: Man(a1-2)Man(a1-3)[Man(a1-6)]Man(a1-6)[Man(a1-2)Man(a1-3)]Man(b1-4)GlcNAc(b1-4)GlcNAc
In short: as §1

[5] = biological target: Man(a1-2)Man(a1-6)[Man(a1-3)]Man(a1-6)[Man(a1-2)Man(a1-2)Man(a1-3)]Man
In short: as §1

[6] = biological target: Man(a1-2)Man(a1-6)[Man(a1-3)]Man(a1-6)[Man(a1-2)Man(a1-2)Man(a1-3)]Man(b1-4)GlcNAc(b1-4)GlcNAc
In short: as §1

Man(a1-3)[Man(a1-6)]Man = biological target: Man(a1-3)[Man(a1-6)]Man
In short: as §1

[7] = biological target: Man(a1-3)[Man(a1-6)]Man(a1-6)[Man(a1-2)Man(a1-3)]Man(b1-4)GlcNAc(b1-4)GlcNAc
In short: as §1

[8] = biological target: Man(a1-3)[Man(a1-6)]Man(a1-6)[Man(a1-3)]Man
In short: as §1

[9] = biological target: Man(a1-3)[Man(a1-6)]Man(a1-6)[Man(a1-3)]Man(b1-4)GlcNAc(b1-4)GlcNAc
In short: as §1

[10] = biological target: Man(a1-3)[Man(a1-6)]Man(b1-4)GlcNAc(b1-4)GlcNAc
In short: as §1

[11] = biological target: Man(a1-3)[Man(a1-6)]Man(b1-4)GlcNAc(b1-4)[Fuc(a1-6)]GlcNAc
In short: as §1

Man(a1-6)Man = biological target: Man(a1-6)Man
In short: as §1

Man(b1-4)GlcNAc = biological target: Man(b1-4)GlcNAc
In short: as §1

MurNAc(b1-4)GlcNAc = biological target: MurNAc(b1-4)GlcNAc
In short: as §1

Neu5Ac(a2-3)Gal = biological target: Neu5Ac(a2-3)Gal
In short: as §1

[12] = biological target: Neu5Ac(a2-3)Gal(b1-3)GalNAc
In short: as §1

[13] = biological target: Neu5Ac(a2-3)Gal(b1-3)GalNAc(b1-3)Gal(a1-4)Gal(b1-4)Glc
In short: as §1

[14] = biological target: Neu5Ac(a2-3)Gal(b1-3)GalNAc(b1-4)[Neu5Ac(a2-3)]Gal(b1-4)Glc
In short: as §1

[15] = biological target: Neu5Ac(a2-3)Gal(b1-3)GalNAc(b1-4)[Neu5Ac(a2-8)Neu5Ac(a2-3)]Gal(b1-4)Glc
In short: as §1

[16] = biological target: Neu5Ac(a2-3)Gal(b1-3)GalNAc6S
In short: as §1

[17] = biological target: Neu5Ac(a2-3)Gal(b1-3)GlcNAc
In short: as §1

[18] = biological target: Neu5Ac(a2-3)Gal(b1-3)GlcNAc(b1-2)Man
In short: as §1

[19] = biological target: Neu5Ac(a2-3)Gal(b1-3)GlcNAc(b1-2)Man(a1-3)[GlcNAc(b1-4)][Neu5Ac(a2-3)Gal(b1-3)GlcNAc(b1-2)Man(a1-6)]Man(b1-4)GlcNAc(b1-4)GlcNAc
In short: as §1

[20] = biological target: Neu5Ac(a2-3)Gal(b1-3)GlcNAc(b1-2)Man(a1-3)[Neu5Ac(a2-3)Gal(b1-3)GlcNAc(b1-2)Man(a1-6)]Man(b1-4)GlcNAc(b1-4)GlcNAc
In short: as §1

[21] = biological target: Neu5Ac(a2-3)Gal(b1-3)GlcNAc(b1-3)Gal(b1-3)GlcNAc
In short: as §1

[22] = biological target: Neu5Ac(a2-3)Gal(b1-3)GlcNAc(b1-3)Gal(b1-4)GlcNAc
In short: as §1

[23] = biological target: Neu5Ac(a2-3)Gal(b1-3)GlcNAc(b1-3)GalNAc
In short: as §1

[24] = biological target: Neu5Ac(a2-3)Gal(b1-3)GlcNAc(b1-4)Gal(b1-4)Glc
In short: as §1

[25] = biological target: Neu5Ac(a2-3)Gal(b1-3)GlcNAc(b1-6)GalNAc
In short: as §1

[26] = biological target: Neu5Ac(a2-3)Gal(b1-3)GlcNAc6S
In short: as §1

[27] = biological target: Neu5Ac(a2-3)Gal(b1-3)[Fuc(a1-4)]GlcNAc
In short: as §1

[28] = biological target: Neu5Ac(a2-3)Gal(b1-3)[Fuc(a1-4)]GlcNAc(b1-3)Gal(b1-3)[Fuc(a1-4)]GlcNAc
In short: as §1

[29] = biological target: Neu5Ac(a2-3)Gal(b1-3)[Fuc(a1-4)]GlcNAc(b1-3)Gal(b1-4)[Fuc(a1-3)]GlcNAc
In short: as §1

[30] = biological target: Neu5Ac(a2-3)Gal(b1-3)[GlcNAc(b1-6)]GalNAc
In short: as §1

[31] = biological target: Neu5Ac(a2-3)Gal(b1-3)[Neu5Ac(a2-6)]GalNAc
In short: as §1

[32] = biological target: Neu5Ac(a2-3)Gal(b1-3)[Neu5Ac(a2-6)]GlcNAc(b1-3)[Fuc(a1-3)[Gal(b1-4)]GlcNAc(b1-6)]Gal(b1-4)Glc
In short: as §1

B1: AT1G77380(17) (Arabidopsis thaliana), Q39134 (protein)
chain: MVQNHQTVLAVDMPQTGGSKYLDDDGKNKRTGSVWTASAHIITAVIGSGVLSLAWATAQLGWLAGPVVMLLFSAVTYFTSSLLAACYRSGDPISGKRNYTYMDAVRSNLGGVKVTLCGIVQYLNIFGVAIGYTIASAISMMAIKRSNCFHKSGGKDPCHMNSNPYMIAFGLVQILFSQIPDFDQLWWLSILAAVMSFTYSSAGLALGIAQVVVNGKVKGSLTGISIGAVTETQKIWRTFQALGDIAFAYSYSIILIEIQDTVKSPPSEEKTMKKATLVSVSVTTMFYMLCGCMGYAAFGDLSPGNLLTGFGFYNPYWLLDIANAAIVIHLIGAYQVYCQPLFAFIEKQASIQFPDSEFIAKDIKIPIPGFKPLRLNVFRLIWRTVFVIITTVISMLLPFFNDVVGLLGALGFWPLTVYFPVEMYIAQKKIPRWSTRWVCLQVFSLGCLVVSIAAAAGSIAGVLLDLKSYKPFRSEY
glycan array binding signal (z-score) [1]: -0.601
glycan array binding signal (z-score) [2]: -0.498
glycan array binding signal (z-score) [3]: 3.3
glycan array binding signal (z-score) [4]: -0.177
glycan array binding signal (z-score) [5]: -0.524
glycan array binding signal (z-score) [6]: 1.19
glycan array binding signal (z-score) (Man(a1-3)[Man(a1-6)]Man): 0.006
glycan array binding signal (z-score) [7]: 1.69
glycan array binding signal (z-score) [8]: -0.782
glycan array binding signal (z-score) [9]: 1.9
glycan array binding signal (z-score) [10]: -0.727
glycan array binding signal (z-score) [11]: -0.239
glycan array binding signal (z-score) (Man(a1-6)Man): -0.696
glycan array binding signal (z-score) (Man(b1-4)GlcNAc): -0.8
glycan array binding signal (z-score) (MurNAc(b1-4)GlcNAc): -0.617
glycan array binding signal (z-score) (Neu5Ac(a2-3)Gal): -0.323
glycan array binding signal (z-score) [12]: 0.18
glycan array binding signal (z-score) [13]: -0.335
glycan array binding signal (z-score) [14]: -0.105
glycan array binding signal (z-score) [15]: 0.187
glycan array binding signal (z-score) [16]: -0.721
glycan array binding signal (z-score) [17]: -0.416
glycan array binding signal (z-score) [18]: -0.099
glycan array binding signal (z-score) [19]: -0.84
glycan array binding signal (z-score) [20]: -0.809
glycan array binding signal (z-score) [21]: 0.368
glycan array binding signal (z-score) [22]: -0.586
glycan array binding signal (z-score) [23]: -0.258
glycan array binding signal (z-score) [24]: -0.757
glycan array binding signal (z-score) [25]: -0.863
glycan array binding signal (z-score) [26]: 0.954
glycan array binding signal (z-score) [27]: 0.003
glycan array binding signal (z-score) [28]: 0.279
glycan array binding signal (z-score) [29]: -0.858
glycan array binding signal (z-score) [30]: -1.04
glycan array binding signal (z-score) [31]: 0.576
glycan array binding signal (z-score) [32]: -0.596
